Some results were stated once for a whole list of compounds, not compound by compound. Some compounds share one range, which may span the group rather than tell each member.
Columns and labels:
Format in all cases: in vivo
Settings in all cases: exposure 30 minutes, 24 hours after contact
[1] = system: Aedes aegypti strain MONHEIM; experiment: Aedes test (AEDSAE surface treatment)
Protocol: Aedes Test (AEDSAE Surface Treatment)
(§1) Solvent: acetone+2000 ppm rapeseed oil methyl ester (RME)
(§2) To produce an appropriate active ingredient formulation, the active ingredient is dissolved in the solvent (2 mg/ml). The active ingredient formulation is pipetted onto a glazed tile and, after it has dried off, adult mosquitoes of the species Aedes aegypti strain MONHEIM are placed onto the treated tile. The exposure time is 30 minutes.
(§3) 24 hours after contact with the treated surface, mortality in % is determined. 100% means that all the mosquitoes have been killed; 0% means that none of the mosquitoes have been killed.

[2] = system: Anopheles funestus strain FUMOZ-R; experiment: Anopheles test (ANPHFU surface treatment)
Protocol: Anopheles Test (ANPHFU Surface Treatment)
as §1
as §2, with “Anopheles funestus” for “Aedes aegypti”, “FUMOZ-R (Hunt et al., Med Vet Entomol. 2005 September; 19 (3):271-5)” for “MONHEIM”
as §3

[3] = system: Anopheles gambiae strain RSPH (homozygot kdr); experiment: Anopheles test (ANPHGB surface treatment)
Protocol: Anopheles Test (ANPHGB Surface Treatment)
as §1
as §2, with “Anopheles gambiae” for “Aedes aegypti”, “RSPH (homozygot kdr)” for “MONHEIM”
as §3

Structure (SMILES) | efficacy (mortality in %) ([1]; application rate 20 mg/m^2) | efficacy (mortality in %) ([1]; application rate 100 mg/m^2) | efficacy (mortality in %) ([2]; application rate 20 mg/m^2) | efficacy (mortality in %) ([2]; application rate 100 mg/m^2) | efficacy (mortality in %) ([3]; application rate 100 mg/m^2) | efficacy (mortality in %) ([3]; application rate 20 mg/m^2)
Cn1nc(C(F)(F)C(F)(F)F)c(C(F)(F)F)c1-n1cc(-c2cccc(NC(=O)C3CC3)c2)cn1 [Example 1-002] | 90-100% | 90-100% | – | – | – | –
Cn1nc(C(F)(F)C(F)(F)F)c(C(F)(F)F)c1-n1cc(-c2cccc(NC(=O)c3ccc(F)cc3)c2)cn1 [Example 1-003] | 90-100% | 90-100% | – | – | – | –
Cn1nc(C(F)(F)C(F)(F)F)c(C(F)(F)F)c1-n1cc(-c2cccc(NC(=O)c3ccnc(Cl)c3)c2)cn1 [Example 1-006] | 90-100% | 90-100% | – | – | – | –
Cn1nc(C(F)(F)C(F)(F)F)c(C(F)(F)F)c1-n1cc(-c2cccc(NC(=O)c3ccccc3)c2)cn1 [Example 1-010] | 90-100% | 90-100% | – | – | – | –
Cn1nc(C(F)(F)C(F)(F)F)c(C(F)(F)F)c1-n1cc(-c2cccc(NC(=O)c3ccccc3F)c2)cn1 [Example 1-012] | 90-100% | 90-100% | – | – | – | –
Cn1nc(C(F)(F)C(F)(F)F)c(C(F)(F)F)c1-n1cc(-c2cccc(NC(=O)c3cccc(F)c3)c2)cn1 [Example 1-013] | 90-100% | 90-100% | – | – | – | –
Cn1nc(C(F)(F)C(F)(F)F)c(C(F)(F)F)c1-n1cc(-c2cccc(NC(=O)c3cc(F)cc(F)c3)c2)cn1 [Example 1-014] | 90-100% | 90-100% | – | – | – | –
Cn1nc(C(F)(F)C(F)(F)F)c(C(F)(F)F)c1-n1cc(-c2cccc(NC(=O)c3ccsc3)c2)cn1 [Example 1-016] | 90-100% | 90-100% | – | – | – | –
Cn1nc(C(F)(F)C(F)(F)F)c(C(F)(F)F)c1-n1cc(-c2cccc(NC(=O)c3cccs3)c2)cn1 [Example 1-017] | 90-100% | 90-100% | – | – | – | –
Cn1cc(C(=O)Nc2cccc(-c3cnn(-c4c(C(F)(F)F)c(C(F)(F)C(F)(F)F)nn4C)c3)c2)cn1 [Example 1-019] | 90-100% | 90-100% | – | – | – | –
Cn1nc(C(F)(F)C(F)(F)F)c(C(F)(F)F)c1-n1cc(-c2ccc(Cl)c(NC(=O)c3ccc(F)cc3)c2)cn1 [Example 1-022] | 90-100% | 90-100% | 90-100% | 90-100% | – | –
Cn1nc(C(F)(F)C(F)(F)F)c(C(F)(F)F)c1-n1cc(-c2ccc(Cl)c(NC(=O)c3ccccc3)c2)cn1 [Example 1-023] | 90-100% | 90-100% | 90-100% | 90-100% | 90-100% | –
Cn1nc(C(F)(F)C(F)(F)F)c(C(F)(F)F)c1-n1cc(-c2ccc(Cl)c(NC(=O)c3ccncc3)c2)cn1 [Example 1-024] | 90-100% | 90-100% | 90-100% | 90-100% | 90-100% | 90-100%
Cn1nc(C(F)(F)C(F)(F)F)c(C(F)(F)F)c1-n1cc(-c2ccc(F)c(NC(=O)c3ccncc3)c2)cn1 [Example 1-025] | 90-100% | 90-100% | 90-100% | 90-100% | – | –
Cn1nc(C(F)(F)C(F)(F)F)c(C(F)(F)F)c1-n1cc(-c2ccc(F)c(NC(=O)c3ccccc3)c2)cn1 [Example 1-026] | 90-100% | 90-100% | 90-100% | – | – | –
Cn1nc(C(F)(F)C(F)(F)F)c(C(F)(F)F)c1-n1cc(-c2ccc(F)c(NC(=O)c3ccc(F)cc3)c2)cn1 [Example 1-027] | 90-100% | 90-100% | 90-100% | – | – | –
Cn1nc(C(F)(F)C(F)(F)F)c(C(F)(F)F)c1-n1cc(-c2ccc(F)c(NC(=O)c3ccncn3)c2)cn1 [Example 1-034] | 90-100% | 90-100% | – | – | – | –
Cn1cc(C(=O)Nc2cc(-c3cnn(-c4c(C(F)(F)F)c(C(F)(F)C(F)(F)F)nn4C)c3)ccc2F)cn1 [Example 1-035] | 90-100% | 90-100% | – | – | – | –
Cn1nc(C(F)(F)C(F)(F)F)c(C(F)(F)F)c1-n1cc(-c2ccc(F)c(NC(=O)c3ncccn3)c2)cn1 [Example 1-036] | 90-100% | 90-100% | 90-100% | 90-100% | 90-100% | –
CN(C(=O)c1ccc(F)cc1)c1cc(-c2cnn(-c3c(C(F)(F)F)c(C(F)(F)C(F)(F)F)nn3C)c2)ccc1F [Example 1-037] | 90-100% | 90-100% | – | 90-100% | – | –
Cc1ccc(-c2cnn(-c3c(C(F)(F)F)c(C(F)(F)C(F)(F)F)nn3C)c2)cc1NC(=O)c1ccncc1 [Example 1-040] | 90-100% | – | 90-100% | 90-100% | 90-100% | –
Cn1nc(C(F)(F)C(F)(F)F)c(C(F)(F)F)c1-n1cc(-c2ccc(F)c(NC(=O)c3cccc(F)c3)c2)cn1 [Example 1-073] | 90-100% | 90-100% | – | 90-100% | – | –
Cc1oncc1C(=O)Nc1cc(-c2cnn(-c3c(C(F)(F)F)c(C(F)(F)C(F)(F)F)nn3C)c2)ccc1F [Example 1-081] | 90-100% | 90-100% | 90-100% | – | – | –
Cn1nc(C(F)(F)C(F)(F)F)c(C(F)(F)F)c1-n1cc(-c2ccc(F)c(NC(=O)c3cccnc3)c2)cn1 [Example 1-085] | – | 90-100% | – | – | – | –
Cn1nc(C(F)(F)C(F)(F)F)c(C(F)(F)F)c1-n1cc(-c2ccc(F)c(NC(=O)c3cncc(F)c3)c2)cn1 [Example 1-086] | 90-100% | – | – | – | – | –
COc1cc(C(=O)Nc2cc(-c3cnn(-c4c(C(F)(F)F)c(C(F)(F)C(F)(F)F)nn4C)c3)ccc2F)ccc1F [Example 1-094] | 90-100% | 90-100% | – | – | – | –
Cn1nc(C(F)(F)C(F)(F)F)c(C(F)(F)F)c1-n1cc(-c2ccc(F)c(NC(=O)c3ccc(Cl)nc3)c2)cn1 [Example 1-099] | 90-100% | 90-100% | – | – | – | –
Cn1nc(C(F)(F)C(F)(F)F)c(C(F)(F)F)c1-n1cc(-c2ccc(F)c(NC(=O)c3ccc(F)nc3)c2)cn1 [Example 1-100] | 90-100% | 90-100% | – | – | – | –
CN(C)C(=O)C(=O)Nc1cc(-c2cnn(-c3c(C(F)(F)F)c(C(F)(F)C(F)(F)F)nn3C)c2)ccc1F [Example 1-127] | 90-100% | 90-100% | 90-100% | – | – | 90-100%
Cn1nc(C(F)(F)C(F)(F)F)c(C(F)(F)F)c1-n1cc(-c2cnc(Cl)c(NC(=O)c3ccc(F)cc3)c2)cn1 [Example 2-001] | 90-100% | 90-100% | – | – | – | –
